Our source for the binding values is publication PMC12855106.

By UniProt entry, the sequences of proteins in these tests, tags left out.
UniProt P03372: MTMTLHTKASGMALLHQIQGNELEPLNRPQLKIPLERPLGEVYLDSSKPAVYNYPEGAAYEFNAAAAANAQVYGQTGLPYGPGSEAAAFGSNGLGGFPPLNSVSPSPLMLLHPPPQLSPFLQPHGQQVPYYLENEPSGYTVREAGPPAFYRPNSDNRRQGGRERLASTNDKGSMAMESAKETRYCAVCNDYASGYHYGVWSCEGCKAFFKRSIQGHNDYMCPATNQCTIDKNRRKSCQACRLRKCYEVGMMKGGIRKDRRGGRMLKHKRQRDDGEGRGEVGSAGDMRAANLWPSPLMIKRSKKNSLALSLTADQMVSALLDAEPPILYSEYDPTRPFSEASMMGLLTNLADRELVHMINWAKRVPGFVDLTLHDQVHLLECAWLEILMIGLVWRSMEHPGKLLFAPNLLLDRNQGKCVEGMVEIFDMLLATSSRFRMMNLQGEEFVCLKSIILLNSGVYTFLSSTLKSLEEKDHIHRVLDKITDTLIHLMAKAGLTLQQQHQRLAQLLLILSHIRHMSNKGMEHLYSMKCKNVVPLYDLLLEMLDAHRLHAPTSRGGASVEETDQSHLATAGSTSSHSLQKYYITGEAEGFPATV

No constants are given. Whether binding was seen depends on the method and setting. Binding seen in cells or lysates may run through a third protein. Some binding calls cover weakened binding; strength is not graded here. Where a sequence is shown, tags or fusion partners need not be part of it.

The experiment addresses T1, 3xGST-GBP1 (guanylate-binding protein 1) (human) (UniProt P32455).
T1 sequence: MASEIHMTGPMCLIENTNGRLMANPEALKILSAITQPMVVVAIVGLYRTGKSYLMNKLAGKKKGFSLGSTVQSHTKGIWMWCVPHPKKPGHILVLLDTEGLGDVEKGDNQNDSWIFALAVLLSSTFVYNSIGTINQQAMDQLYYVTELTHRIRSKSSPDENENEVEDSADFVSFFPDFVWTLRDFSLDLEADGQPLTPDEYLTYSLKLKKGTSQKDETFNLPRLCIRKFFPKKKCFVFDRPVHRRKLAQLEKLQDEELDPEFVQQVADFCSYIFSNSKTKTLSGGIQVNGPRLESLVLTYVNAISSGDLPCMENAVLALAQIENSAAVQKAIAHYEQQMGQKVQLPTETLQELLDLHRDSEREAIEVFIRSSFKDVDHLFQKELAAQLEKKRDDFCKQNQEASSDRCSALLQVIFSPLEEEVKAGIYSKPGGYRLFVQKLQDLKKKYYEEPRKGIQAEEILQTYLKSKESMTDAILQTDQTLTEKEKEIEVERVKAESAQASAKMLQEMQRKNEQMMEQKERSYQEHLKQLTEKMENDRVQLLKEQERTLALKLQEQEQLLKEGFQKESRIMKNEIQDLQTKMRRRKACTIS
As to the kind of experiment: co-IP; 3xFlag-ERα and 3xGST-GBP1 cotransfected into HepG2 2.15 cells for 48 h; RIPA lysate; IP with protein A+G magnetic beads carrying anti-GBP1 antibody, IgG as negative control; immunoblot with anti-GST/anti-Flag antibodies.

Regarding “3xFlag-ERα (estrogen receptor ERα) (from UniProt P03372 1-595)”, the binding result is recorded as “binds”.
